Results: US20230312702A1 (KINDRED BIOSCIENCES, published 2023)
These are yes or no findings as the source states them, for the method shown. Some entries that bind do so weakly or less than the wild type. Where a sequence is shown, tags or fusion partners need not be part of it.

How the values were obtained:
[1] = target: T1, pGEX_GST-IL31. P12-E21*(clone 24-7); assay: immunoblot of E. coli lysates with GST-IL31 fragment fusions; probe is M14 or caninized M14, the sheet does not say which; anti-GST blot below
T1 sequence (GST fusion protein): PSDVRKIILE

GST-IL31.P12-E21.V15A = target: T2, GST-IL31.P12-E21.V15A; assay: immunoblot of GST-IL31 fragment fusions; probe is M14 or caninized M14, the sheet does not say which; anti-GST blot below
T2 sequence (GST fusion protein): PSDARKIILE

[2] = target: T1, pGEX_GST-IL31. P12-E21*(clone 24-7); assay: as above
[3] = target: T3, pGEX_GST-IL31. P12-E21*.R16A (Clones 53.1 & 53.8); assay: immunoblot of E. coli lysates with GST-IL31 fragment fusions; probe is M14 or caninized M14, the sheet does not say which; anti-GST blot below shows lanes 3 and 8 loaded
T3 sequence (GST fusion protein): PSDVAKIILE

GST-IL31.P12-E21.I19A [4] = target: T4, GST-IL31.P12-E21.I19A; assay: immunoblot of GST-IL31 fragment fusions probed with mouse M14 (panel label reads 'Anti-IL13 (hybridoma)'); anti-GST blot below
T4 sequence (GST fusion protein): PSDVRKIALE

GST-IL31.P12-E21.L20A [5] = target: T5, GST-IL31.P12-E21.L20A; assay: as above
T5 sequence (GST fusion protein): PSDVRKIIAE

[6] = target: T1, pGEX_GST-IL31. P12-E21*(clone 24-7); assay: as above
GST-IL31.P12-E21.I19A [7] = target: T4, GST-IL31.P12-E21.I19A; assay: immunoblot of GST-IL31 fragment fusions probed with caninized M14 (panel label reads 'Anti-IL13 (caninized)'); anti-GST blot below
GST-IL31.P12-E21.I18A = target: T6, GST-IL31.P12-E21.I18A; assay: as above
T6 sequence (GST fusion protein): PSDVRKAILE

GST-IL31.P12-E21.L20A [8] = target: T5, GST-IL31.P12-E21.L20A; assay: as above
[9] = target: T1, pGEX_GST-IL31. P12-E21*(clone 24-7); assay: as above
GST-IL31(P34-K58*) = target: T7, GST-IL31(P34-K58*); assay: immunoblot of GST-canine IL31 fusions expressed in E. coli, membrane probed with chimeric M14; anti-GST blot of the same samples in Fig. 6B
T7 sequence (GST fusion protein): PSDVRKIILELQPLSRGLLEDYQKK

GST-IL31(P34-K58*).E43A = target: T8, GST-IL31(P34-K58*).E43A; assay: as above
T8 sequence (GST fusion protein): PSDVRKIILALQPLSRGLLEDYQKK

[10] = target: T9, GST canine IL31 fragment fusion containing the minimal fragment (SEQ ID NO: 23) (canine); assay: as above
T9 sequence: PSDVRKIILELQPLSRG

[11] = target: T9, GST canine IL31 fragment fusion containing the minimal fragment (SEQ ID NO: 23) (canine); assay: immunoblot of GST canine IL31 fragment fusions probed with chimeric M14

Measured: binding

B1: monoclonal antibody M14 (mouse antibody clone M14) (antibody, V domains shown)
VH: EVQLQESGPSLVKPSQTLSLTCSVTGDSITSGYWNWIRKFPGNKLEYMGYISYSGITDYNPSLKSRISITRDTSKNQYYLQLNSVTTEDTATYYCARYGNYGYAMDYWGQGTSVTVSS
VL: DIVLTQSPASLAVSLGQRATISCRASESVDTYGNSFMHWYQQKSGQSPKLLIYRASNLESGIPARFGGSGSRTDFTLTIDPVEADDVATYYCQQSYEDPWTFGGGTKLEIK
binds: [1] | GST-IL31.P12-E21.V15A | [2] | [3] | GST-IL31.P12-E21.I19A [4] | GST-IL31.P12-E21.L20A [5] | [6]

B2: caninized M14 IgG-B (antibody, V domains shown)
VH: EVQLVESGPSLVKPGGSLRLTCSVTGDSITSGYWNWIRKFPGNKLEYMGYISYSGITDYNPSLKSRITISRDTSKNQYYLQLNSVTTEDTATYYCARYGNYGYAMDYWGQGTLVTVSS
VL: DIVMTQSPASLSVSLGQRATISCRASESVDTYGNSFMHWYQQKPGQSPKLLIYRASNLESGIPARFGGSGSGTDFTLTIDPVQADDVATYYCQQSYEDPWTFGGGTKLEIKR
notes: Caninized M14 on canine IgG-B with canine light chain constant region; also called caninized M14 antibody
binds: GST-IL31.P12-E21.I19A [7] | GST-IL31.P12-E21.I18A | GST-IL31.P12-E21.L20A [8] | [9]

B3: chimeric M14 (murine M14 VH and VL fused to canine IgG-B constant heavy chain and canine constant light chain) (antibody, V domains shown)
VH: EVQLQESGPSLVKPSQTLSLTCSVTGDSITSGYWNWIRKFPGNKLEYMGYISYSGITDYNPSLKSRISITRDTSKNQYYLQLNSVTTEDTATYYCARYGNYGYAMDYWGQGTSVTVSS
VL: DIVLTQSPASLAVSLGQRATISCRASESVDTYGNSFMHWYQQKSGQSPKLLIYRASNLESGIPARFGGSGSRTDFTLTIDPVEADDVATYYCQQSYEDPWTFGGGTKLEIKR
notes: expressed in CHO cells, Protein A purified; also called chimeric M14 antibody
binds: GST-IL31(P34-K58*) | GST-IL31(P34-K58*).E43A | [10] | [11]
